Results are given in words; binding and its absence hold for the method and conditions named. Some binding calls cover weakened binding; strength is not graded here.
T1: CD206 antigen (purified extracellular region of mouse CD206, expressed in FreeStyle 293-F cells) (mouse) (UniProt Q61830)
T1 sequence (looked up): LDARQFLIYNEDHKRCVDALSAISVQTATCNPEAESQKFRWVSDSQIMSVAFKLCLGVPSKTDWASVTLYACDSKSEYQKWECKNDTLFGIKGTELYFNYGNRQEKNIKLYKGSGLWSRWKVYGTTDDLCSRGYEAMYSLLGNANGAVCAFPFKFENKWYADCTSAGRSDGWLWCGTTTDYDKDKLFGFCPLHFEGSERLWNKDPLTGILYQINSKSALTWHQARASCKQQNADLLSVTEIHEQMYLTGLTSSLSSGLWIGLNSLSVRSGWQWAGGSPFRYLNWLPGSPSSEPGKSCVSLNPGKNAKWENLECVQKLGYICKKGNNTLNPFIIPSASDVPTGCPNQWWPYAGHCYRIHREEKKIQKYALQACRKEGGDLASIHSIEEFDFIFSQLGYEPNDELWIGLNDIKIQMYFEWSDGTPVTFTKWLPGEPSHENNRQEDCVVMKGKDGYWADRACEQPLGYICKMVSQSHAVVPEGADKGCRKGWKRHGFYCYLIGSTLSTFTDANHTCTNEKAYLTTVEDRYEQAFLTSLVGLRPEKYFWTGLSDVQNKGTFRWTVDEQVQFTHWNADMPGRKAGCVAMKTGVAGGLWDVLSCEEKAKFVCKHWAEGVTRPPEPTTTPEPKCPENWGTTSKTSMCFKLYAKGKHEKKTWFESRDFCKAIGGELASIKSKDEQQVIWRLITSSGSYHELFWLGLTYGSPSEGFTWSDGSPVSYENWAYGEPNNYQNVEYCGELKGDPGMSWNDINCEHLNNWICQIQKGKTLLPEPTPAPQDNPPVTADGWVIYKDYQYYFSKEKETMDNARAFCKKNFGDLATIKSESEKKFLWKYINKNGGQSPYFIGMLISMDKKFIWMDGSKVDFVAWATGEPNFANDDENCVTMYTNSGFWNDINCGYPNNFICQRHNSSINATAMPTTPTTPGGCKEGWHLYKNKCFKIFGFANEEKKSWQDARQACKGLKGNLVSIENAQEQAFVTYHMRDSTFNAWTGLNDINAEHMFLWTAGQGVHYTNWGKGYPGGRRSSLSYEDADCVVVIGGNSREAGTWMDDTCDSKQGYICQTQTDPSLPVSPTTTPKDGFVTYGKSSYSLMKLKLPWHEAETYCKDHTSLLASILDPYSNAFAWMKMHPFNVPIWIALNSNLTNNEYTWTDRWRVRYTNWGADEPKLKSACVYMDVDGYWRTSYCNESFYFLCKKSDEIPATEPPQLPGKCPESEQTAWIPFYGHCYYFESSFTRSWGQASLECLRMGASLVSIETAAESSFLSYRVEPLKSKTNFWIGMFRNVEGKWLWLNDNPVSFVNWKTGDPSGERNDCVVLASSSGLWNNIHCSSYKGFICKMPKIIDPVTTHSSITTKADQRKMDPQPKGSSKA

B1: anti-CD206 antibody (No.10) (antibody, V domains shown)
VH: QVQLQQPGAELVRPGSSVKLSCKASGYTFISYWMDWVKQRPGQGLEWIGNIFPSDSETHYNQKFRDKATLTVDKSSSTASIHLSSLTSEDSAVYYCGRRDSSGWIDYWGQGTTLTVSS
VL: DIQMTQTTSSLSASLGDRVTISCRASQDISNYLNWYQQKPDGTVKLLIYYTSRFHSGVPSRFSGSGSGTDYSLTIHNVEQEDIATYFCQQSSMLPFTFGSGTKLEMK
B2: anti-CD206 antibody (No.27) (antibody, V domains shown)
VH: QVQLQQPGAELVKPRASVKLSCRASGYIFISYWMQWVKQRPGQGLEWIGEIDPSDSYINYNQKFKGKASLTVDTSSNTAYMQLSSLTSEDSAVYYCATGDMGDDFYAMDYWGQGTSVTVSS
VL: DIVMNQDELSNPVTSGESVSISCRSSKSLLYKDGKTYLNWFLQRPGQSPQLLIYLMSTRASGVSDRFSGSGSGTDFTLEISRVKAEDVGVYYCQQLVEYPFTFGGGTKLEIK
B3: anti-CD206 antibody (No.35) (antibody, V domains shown)
VH: QVQLQQPGAELVKPGASVKVSCKASGYTFTTYWMHWVKQRPGQGLEWIGRIHPSDSDSNYNQKFKGKATLTVDKSSSTAYMQLSSLTSEDSAVYYCAIGRGFAYWGQGTLVTVSA
VL: DIVLTQSPASLAVSLGQRAAISCRASESVDNYGNSFMHWYQQKPGQPPKLLIYRASNLESGIPARFSGSGSRTDFTLTINPVEADDVATYYCQQGNEDPYTFGGGTKLEIK
B4: anti-CD206 antibody (No.44) (antibody, V domains shown)
VH: QVQLQQSGAELVRPGTSVKVSCKASGYAFTDYLIEWVKQRPGQGLEWIGVINPGRGGTNYNEKFKGKATLTADKSSSTAYMQLSSLTSEDSAVYFCARYYGRSFGYFDVWGTGTTVTVSS
VL: DIQMTQSPASQSASLGESVTITCLASQTIGTWLAWYQQKPGKSPQLLIYAATSLADGVPSRFSGSGSGTKFSFKISSLQAEDFVSYYCQQLYSPPLTFGAGTKLELK
B5: anti-CD206 antibody (No.47) (antibody, V domains shown)
VH: QVQLQQPGAELVRPGSSVKLSCKASGYTFTSYWMDWVKQRPGQGLEWIGNIYPSDSETHYNQKFKDRATLTVDKSSTTAYMQLSSLTSEDSAVYYCTRRDSSGWIDYWGQGTTLTVSS
VL: DIQMTQTTSSLSASLGDRVTISCRASQDISNYLNWYQQKPDGTVKLLIYYTSRLHSGVPSRFSGRGSGTDYSLTISNLEQEDIATYFCQQGNTLPFTFGSGTQLEIK
B6: anti-CD206 antibody (No.54) (antibody, V domains shown)
VH: EVQLVESGGGLVQPKGSLKLSCAASGFSFNTYTMNWVRQAPGKGLEWVARIRSKSNNYETYYADSVKDRFTISRDDSESMLYLQMNNLKTEDTAMYYCVSPDSDSWFAYWGQGTLVTVSA
VL: DIQMNQSPSSLSASLGDTITIACHASQNINVWLSWYQQKPGNIPKLLIYKASNLHTGVPSRFSGSGSGTGFTLTISSLQPEDIATYYCQQGQSYPLTFGGGTKLEIK
B7: anti-CD206 antibody (No.72) (antibody, V domains shown)
VH: QVQLQQPGAELVRPGSSVKLSCKASGYTFTTYWMHWVKQRPIQGLEWIGNIDPSDSETHYNQKFKDKATLTVDKSSSTAYMQLNSLTSEDSAVYYCARGDGYYVYFAYWGQGTTLTVSS
VL: EIVLTQSPALMAASPGEKVTITCSVSSSISSSNLHWYQQKSETSPKPWIYATSNLASGVPVRFSGSGSGTSYSLTISSMAAEDAATYFCQQWSSFPLTFGAGTKLELK
B8: anti-CD206 antibody (No.83) (antibody, V domains shown)
VH: QVQLLQSGAELVRPGTAVKMSCKASEYTFTNYWIGWARQRPGHGLEWIGDIYPGGGYINYNEKFKGKATLTADKSSSTVYMQFSSLTSEDSAIYYCARGGSNYVGHFDYWGQGTTLTVSS
VL: DIQMTQTTSSLSASLGDRVTISCRASQDISNYLNWYQQKPDGTVKLLIYYTSILHSRVPSRFSGSGSGTDYSLTISNLEQEDIATYFCQHGHTLPWTFGGGTKLEIK

target: T1, CD206 antigen (purified extracellular region of mouse CD206, expressed in FreeStyle 293-F cells) (mouse); assay: ELISA, CD206 antigen immobilised on the plate

binding, binds:
B1
B2
B3
B4
B5
B6
B7
B8

Source: WO2022244854A1
